## Primary screen of a compound library

The values are deposited in ChEMBL (CHEMBL3988442, “University of Dundee, Small-Polar-MMV Screening Library” (2021)).

Mtb glucose medium: 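Whole-cell growth test on Mycobacterium tuberculosis, read after 3 days in glucose-containing 7H9 medium; the read-out is not stated. Concentration: 50 µM. Higher reads as more growth inhibition (inferred: compounds with an IC50 in retests scored well above the rest). Of about 69,000 compounds tested this way, about 760 (1.1%) reached 50% or more in at least one test.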
Mtb cholesterol medium: 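Whole-cell growth test on Mycobacterium tuberculosis, read after 4 days in a medium based on cholesterol and the lipid DPPC; the read-out is not stated. Concentration: 50 µM. Direction is inferred from retests: higher values go with more growth inhibition. Size under these conditions: about 69,000 compounds, about 370 of them at 50% or above in at least one test.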

Each number is a percent effect as filed.
The controls that fix the scale are not given in the record; negative values are as filed.
The compounds are a random part of those screened.
Two or more numbers in one place are separate tests of the same structure; such repeats can differ widely.

SMILES | Mtb glucose medium | Mtb cholesterol medium
Cc1n[nH]c(C)c1NC(=O)CN(CC(O)c1ccc(F)cc1)C1CC1 (stereo unspecified) | 24.65 | 8.645
NCC1Cc2cc(-c3nccc(N4CCC(O)CC4)n3)cc(Cl)c2O1 (stereo unspecified) | 20.97 | 3.221
CCSc1cc(C(=O)NCc2ccc(C(=O)NC)cc2)ccn1 | 29.28 | -0.715
Cc1nn(C)c2c(=O)n(Cc3ccc(C#N)cc3)nnc12 | 36.17 | 9.223
CN(CC(=O)Nc1ccccc1C(=O)NC1CC1)Cc1ccccc1Cl | 8.904 | -17.37
CC(C)c1nc(CN(C)Cc2ccc(O)c(C(=O)O)c2)cs1 | -23.17 | -7.318
COc1ccc(N(CCC(N)=O)C(=O)CSc2ccc(F)c(F)c2)cc1 | 13.94 | -1.965 & 11.05
Cc1nn(CC(=O)N2CCCC2Cn2cccn2)c(C)c1Cl (stereo unspecified) | -13.28 | 11.24 & 11.85
COc1ccc2c(c1)CN(Cc1nc3ccsc3c(=O)[nH]1)CC2 | 12.34 | 9.485
Cc1nc(-c2ccc(CNS(=O)(=O)N(C)C)cc2)ccc1C(N)=O | -2.126 | -0.6417
CCOc1ccccc1C(CC(=O)Nc1ccncc1)NC(C)=O (stereo unspecified) | 4.373 | 7.451
O=C(O)C(F)(F)F.[H][C@@]12CCCO[C@]1([H])[C@@H](NC(=O)C1CC1)CN2Cc1cccc(C#N)c1 | 7.578 | -1.096 & 24.58
c1cnn(CC2CN(c3ncnc4ccsc34)CCO2)c1 (stereo unspecified) | -19.63 | 2.045 & -5.909
O=C(O)C(F)(F)F.O=C(c1ccoc1)N1CCO[C@]2(CCC[C@@H]2COCc2cccnc2)C1 | 18.67 & -3.079 | -14.93
CCC1CN(C(=O)c2cccnc2O)CCC(=O)N1Cc1ccccc1 (stereo unspecified) | -24.81 | 35.33 & -1.611
CC(C)NC(=O)N1CCOC2(CCNCC2)C1 | -18.51 | -20.83
CN1C(=O)CCc2cc(NC(=O)C3CC3)ccc21 | 2.099 & -45.71 | -15.1
Fc1cccc(-c2n[nH]cc2-c2nc(CN3CCOCC3)no2)c1 | -33.19 & -11.18 | -11.27
Cc1cccc(CN2CCCC3(CCN(c4cccnc4)C3=O)C2)n1 (stereo unspecified) | 4.198 & 4.565 | -5.383
CN(C)CCn1c2c(ccc1=O)CC(NC(=O)c1cnccn1)CC2.O=C(O)C(F)(F)F (stereo unspecified) | -47.54 | -17.2
CCn1cc(S(=O)(=O)NC(CO)Cc2c[nH]c3ccccc23)cn1 (stereo unspecified) | 16.85 | -1.926
CCC(CC(=O)NS(=O)(=O)C(C)C)c1ccccc1 (stereo unspecified) | -11.17 | -0.5566
Cc1cn2c(n1)CCC(NC(=O)c1csc(C(C)C)n1)C2 (stereo unspecified) | -2.074 | 11.77
Cc1occc1C(=O)N1CCCn2cnc(CN3CCCC3=O)c2C1 | -5.483 | -16.64
Cc1noc(C)c1CN(C)c1nccc(C(F)(F)F)n1 | 9.768 & 9.287 | 6.46
Cc1ccc(-c2c(C(=O)NC3CCN(C)CC3)csc2C)cc1 | 6.444 & 2.813 | 3.474 & -0.5837
COCCC1(CO)CCCN(C(=O)c2cc(Cl)ccc2F)C1 (stereo unspecified) | 11.72 | -1.905
Cc1nn(C)c(Cl)c1C1CCCN1c1ncnc2c1CCC2 (stereo unspecified) | -68.65 | -17.2
Cc1ccc(C2CSCCN2CC(=O)N2CCOCC2)cc1 (stereo unspecified) | 20.51 | -1.749
CC(=O)N1CCCN(C(=O)NCc2cc[nH]n2)CC1 | 9.849 | 0.6818
COC(CNC(=O)c1ccc(NC(C)=O)cc1)c1cccc(Cl)c1 (stereo unspecified) | -20.3 & 5.792 | 22.02
CC(=O)N(Cc1noc(C2CC2)n1)C1CCN(CC(=O)NC2CC2)C1 (stereo unspecified) | -43.12 | 24.9
Cc1ccccc1C(=O)Nc1cnn(CCN2CCOCC2)c1 | 11.99 | 10.84
Cc1noc(C)c1CN1CCOCC12CCN(c1ncccn1)CC2.O=C(O)C(F)(F)F | 25.06 | 8.024
Cc1n[nH]c(C)c1C(N)C(=O)NCCc1csc(C(C)C)n1 (stereo unspecified) | -25.24 | -21.69
CC(=O)NCCC1CCCCN1S(=O)(=O)c1cccc(F)c1 (stereo unspecified) | -30.16 | -24.73
Cc1cccc(C)c1OCCNC(=O)NC(C)c1nncn1C (stereo unspecified) | -10.78 | -2.09
O=C(c1ccc[nH]1)N1CCCC2(CCCN2Cc2cccnc2)C1 (stereo unspecified) | 14.37 | 0.3636
CCc1cccc(N2CCC(NC(=O)C3CCOCC3)CC2)c1 | 8.997 | -7.853
CCc1n[nH]c(C2CN(C(=O)c3cc(C4CC4)on3)CCO2)n1 (stereo unspecified) | 14.79 | 8.924
COc1c(C2CCCN2C(=O)c2ccco2)c(C)nn1C (stereo unspecified) | -42.71 | -3.149 & -12.19
O=C1CCC(c2ccc(Cl)cc2)=NN1CN1CCCCCC1 | 9.28 | -1.329
Cc1nn(CC(O)CN2CCc3ccccc3C2)c(=O)c(C#N)c1C (stereo unspecified) | -10.82 | -15.4
CC(C)(C(=O)NCc1ccccc1F)n1cc(Br)cn1 | 10.9 | -19.69